Laboratory results as given in PMC5682285.
No constants are given. Whether binding was seen depends on the method and setting. Binding seen in cells or lysates may run through a third protein. These calls come from enrichment with a bait or labelling near it, and not all partners need be listed.

Protein sequences, listed by entry. Tags and fused reporters are not part of them.
UniProt Q14671: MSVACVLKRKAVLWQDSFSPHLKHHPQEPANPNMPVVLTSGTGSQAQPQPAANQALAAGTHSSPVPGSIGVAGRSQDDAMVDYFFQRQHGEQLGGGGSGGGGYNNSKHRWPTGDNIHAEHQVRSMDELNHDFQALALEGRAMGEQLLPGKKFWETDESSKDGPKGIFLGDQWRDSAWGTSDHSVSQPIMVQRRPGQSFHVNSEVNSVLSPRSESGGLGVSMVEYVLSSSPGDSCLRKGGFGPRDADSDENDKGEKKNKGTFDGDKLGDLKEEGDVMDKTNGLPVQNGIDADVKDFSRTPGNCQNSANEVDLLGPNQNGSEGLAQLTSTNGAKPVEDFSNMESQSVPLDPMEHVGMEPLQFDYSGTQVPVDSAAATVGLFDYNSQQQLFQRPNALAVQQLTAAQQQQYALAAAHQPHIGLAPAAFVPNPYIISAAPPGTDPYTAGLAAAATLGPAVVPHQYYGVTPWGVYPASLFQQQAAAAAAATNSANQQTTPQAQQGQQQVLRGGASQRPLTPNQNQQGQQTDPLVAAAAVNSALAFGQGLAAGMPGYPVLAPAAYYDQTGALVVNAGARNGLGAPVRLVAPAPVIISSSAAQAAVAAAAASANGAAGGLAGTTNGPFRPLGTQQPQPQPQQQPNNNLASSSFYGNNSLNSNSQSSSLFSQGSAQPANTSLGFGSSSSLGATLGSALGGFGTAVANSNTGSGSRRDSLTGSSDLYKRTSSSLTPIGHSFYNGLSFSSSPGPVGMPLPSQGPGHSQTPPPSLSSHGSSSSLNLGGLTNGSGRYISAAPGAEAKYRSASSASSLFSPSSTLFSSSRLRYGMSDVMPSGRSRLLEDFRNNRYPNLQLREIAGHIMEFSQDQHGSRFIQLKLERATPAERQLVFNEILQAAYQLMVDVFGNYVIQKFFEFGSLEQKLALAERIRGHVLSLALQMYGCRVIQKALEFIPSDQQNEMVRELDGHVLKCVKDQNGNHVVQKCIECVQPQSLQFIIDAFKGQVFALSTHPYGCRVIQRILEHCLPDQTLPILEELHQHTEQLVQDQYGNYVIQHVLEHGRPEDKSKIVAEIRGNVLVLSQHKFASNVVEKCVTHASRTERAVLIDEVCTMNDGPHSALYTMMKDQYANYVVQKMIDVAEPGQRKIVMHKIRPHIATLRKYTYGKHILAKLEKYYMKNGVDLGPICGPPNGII

Biological target: T1, CSDE1 (cold shock domain containing E1) (human (endogenous in hESCs)) (UniProt O75534)
T1 sequence: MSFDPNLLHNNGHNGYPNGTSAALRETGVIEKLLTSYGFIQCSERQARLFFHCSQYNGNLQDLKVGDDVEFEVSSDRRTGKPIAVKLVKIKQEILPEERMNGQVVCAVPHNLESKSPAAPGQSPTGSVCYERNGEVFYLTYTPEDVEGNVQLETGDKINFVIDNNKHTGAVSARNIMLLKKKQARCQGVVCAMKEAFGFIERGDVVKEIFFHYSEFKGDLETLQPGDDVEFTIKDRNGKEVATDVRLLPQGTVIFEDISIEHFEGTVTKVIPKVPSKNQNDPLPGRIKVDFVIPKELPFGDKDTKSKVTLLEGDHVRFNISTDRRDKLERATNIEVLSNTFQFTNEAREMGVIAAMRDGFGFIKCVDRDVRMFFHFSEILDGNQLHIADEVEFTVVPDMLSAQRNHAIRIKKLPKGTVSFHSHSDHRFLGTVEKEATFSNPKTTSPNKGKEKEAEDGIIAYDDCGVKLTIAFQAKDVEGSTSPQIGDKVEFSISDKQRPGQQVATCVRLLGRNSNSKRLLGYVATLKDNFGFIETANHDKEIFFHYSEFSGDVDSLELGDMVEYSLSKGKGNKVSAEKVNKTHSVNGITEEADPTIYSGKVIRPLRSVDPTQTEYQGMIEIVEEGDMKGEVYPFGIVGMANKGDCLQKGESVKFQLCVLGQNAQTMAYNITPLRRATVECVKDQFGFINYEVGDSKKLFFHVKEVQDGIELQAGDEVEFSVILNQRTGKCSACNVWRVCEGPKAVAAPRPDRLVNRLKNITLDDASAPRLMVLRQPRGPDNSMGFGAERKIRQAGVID
Experiment: affinity purification with mass spectrometry; endogenous CSDE1 immunoprecipitated from hESC lysate (modified RIPA buffer: 50 mM Tris-HCl pH 7.4, 150 mM NaCl, 1% IgPal, 0.25% sodium deoxycholate, 1 mM EDTA) with anti-CSDE1 antibody and Protein A beads at 4 °C; anti-FLAG antibody as control; in-column tryptic digestion, single shot label-free proteomics (MaxQuant, Perseus)

binding: binds
Substance: Pumilio homolog 1 (PUM1) (from UniProt Q14671 1-1186)
